Assay results: publication doi:10.1101/203539
No constants are given. Whether binding was seen depends on the method and setting. In cells and extracts the contact can be indirect. A yes stands for co-enrichment or nearness to the bait. Other partners may have been found. No binding means not detected with the bait. Tags and fused reporters may be left off the sequences shown. One block for each binder: values may come before it.

Molecular target: T1, biotagged Csde1 (cold shock domain protein e1) (UniProt Q91W50)
T1 sequence (chain, biotin on the biotag (biotin ligase BirA coexpressed)): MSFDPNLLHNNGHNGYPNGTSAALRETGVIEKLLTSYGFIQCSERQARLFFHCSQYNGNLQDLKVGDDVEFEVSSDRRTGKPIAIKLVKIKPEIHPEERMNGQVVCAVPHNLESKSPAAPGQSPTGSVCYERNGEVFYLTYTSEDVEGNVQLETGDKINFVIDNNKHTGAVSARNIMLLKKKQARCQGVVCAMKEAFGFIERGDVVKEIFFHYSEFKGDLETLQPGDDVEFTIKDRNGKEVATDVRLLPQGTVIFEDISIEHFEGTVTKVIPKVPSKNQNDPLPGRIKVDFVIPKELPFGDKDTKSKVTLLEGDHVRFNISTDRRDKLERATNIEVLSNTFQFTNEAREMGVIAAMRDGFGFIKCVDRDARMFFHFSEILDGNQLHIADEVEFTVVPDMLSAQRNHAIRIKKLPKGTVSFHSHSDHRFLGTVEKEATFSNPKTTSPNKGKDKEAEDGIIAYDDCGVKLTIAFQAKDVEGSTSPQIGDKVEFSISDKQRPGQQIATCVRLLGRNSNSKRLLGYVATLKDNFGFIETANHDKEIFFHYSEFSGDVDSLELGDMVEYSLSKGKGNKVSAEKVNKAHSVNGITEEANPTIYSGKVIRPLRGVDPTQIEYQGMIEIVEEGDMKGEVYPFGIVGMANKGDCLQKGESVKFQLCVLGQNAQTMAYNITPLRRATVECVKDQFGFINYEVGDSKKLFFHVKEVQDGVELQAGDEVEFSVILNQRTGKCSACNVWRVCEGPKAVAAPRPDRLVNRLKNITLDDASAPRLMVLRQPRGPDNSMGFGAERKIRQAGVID
Assay: affinity purification with mass spectrometry

- binding: no binding
B1: 4E-T (eIF4E Transporter) (protein, UniProt Q9EST3 1-983)
chain: MEKSVAETENGDAFLELKKLPTSKSPHRYTKEELLDIKERPYSKQRPSCLSEKYDSDGVWDPEKWHASLYPASGRSSPVESLKKESESDRPSLVRRIADPRERVKEDDLDVVLSPQRRSFGGGCHVTAAVSSRRSGSPLEKDSDGLRLLGGRRIGSGRIISARAFEKDHRLSDKDLRDLRDRDRERDYKDKRFRREFGDSKRVFGERRRNDSYTEEEPEWFSAGPTSQSETIELTGFDDKILEEDHKGRKRTRRRTASVKEGIVECNGGVAEEDEVEVILAQEPSADQEVPRDVILPEQSPGEFDFNEFFNLDKVPCLASMIEDVLGEGSVSASRFSRWFSNPSRSGSRSSSLGSTPHEELERLAGLEQAVLSPGQNSGNYFAPIPSEDHAENKVDILEMLQKAKVDLKPLLSSLSANKEKLKESSHSGVVLSVEEVEAGLKGLKVDQQMKNSTPFMAEHLEETLSAASSNRQLKKDGDMTAFNKLVNTMKASGTLPTQPKVSRNVESHLLAPAEIPGQPVSKNILQELLGQPVQRPASSNLLSGLMGSLEATASLLSQRAPSPPMSQVFRTQAASADYLHPRIPSPIGFPSGPQQLLGDPFQGMRKPMSPVSAQMSQLELQQAALEGLALPHDLAVQTAPFYQPGFSKPQVDRTRDGLRNRQQRMSKSPAPMHGGNSSSPAPAASITSMLSPSFTPTSVIRKMYESREKTKEEMAPGMVVPGDGKEDTQKTSEENLLSSNPIPNTDQDSSTTNPKLSTLQRSSCSTPLSQTSRYTKEQDYRPKTAGRKTPTLASPVPGTPFLRPTHQVPLVPHVPIVRPAHQLHPGLVQRLIAQGVHPQHLPSLLQAGVLPPGIDMAPLQGLSGPLLGQPLYPLVSAASHPLLNPRPGTPLHLAVMQQQLQRSVLHPPGSSSQAAAISVQTPQNVPSRSGMPHMHSQLEHRTSQRSSSPVGLAKWFGSDVLQQPLPSMPTKVISVDELEYRQ

- binding: binds
B2: Strap (serine-threonine receptor associated-protein) (protein, UniProt Q9Z1Z2 1-350)
chain: MAMRQTPLTCSGHTRPVVDLAFSGITPYGYFLISACKDGKPMLRQGDTGDWIGTFLGHKGAVWGATLNKDATKAATAAADFTAKVWDAVSGDELMTLAHKHIVKTVDFTQDSNYLLTGGQDKLLRIYDLNKPEAEPKEISGHTSGIKKALWCSDDKQILSADDKTVRLWDHATMTEVKSLNFNMSVSSMEYIPEGEILVITYGRSIAFHSAVSLEPIKSFEAPATINSASLHPEKEFLVAGGEDFKLYKYDYNSGEELESYKGHFGPIHCVRFSPDGELYASGSEDGTLRLWQTVVGKTYGLWKCVLPEEDSGELAKPKIGFPETAEEELEEIASENSDSIYSSTPEVKA
